At least one structure is not confirmed: it was looked up by name or label, or the drawing left a doubt.
System: M. tuberculosis isolates
Format: cell-based, Mycobacterium tuberculosis

CC1COc2c(N3CCN(C)CC3)c(F)cc3c(=O)c(C(=O)O)cn1c23 (centres unmarked) [Ofloxacin]
Phenotypic DST: Phenotypic resistance
Routine phenotypic DST: susceptible

Reference: patent US12522877B2, “Early detection of drug-resistant mycobacterium tuberculosis” (The Translational Genomics Research Institute, priority 2020, dated 2026)
